Source: US9125388B2, “Biological control” (Isis Innovation Limited, priority 1999, dated 2015)
The source gives many values for each of these; only a part stands here.

System: Yp3 tTa, tRe Ras64B^V12 on the 2nd chromosome
Assay: Recombinant chromosome experiments / maternal transmission of Tc (Table 1): parents raised on supplement, progeny on normal food, adults by sex
Assay type: in vivo, Drosophila melanogaster
Details: 25° C.
Protocol: 40-45 young females and 20-25 young males raised at 25° C. upon food with the indicated tetracycline supplement were allowed to mate, then transferred to normal (tetracycline-free) food after 3-4 days. These flies were transferred to fresh vials of normal food every day for 12 days, then removed on the 13th day. All the vials were incubated at 25° C. while the progeny developed. The numbers of male and female progeny emerging as adults in each vial were recorded.
A standard range of additive concentrations were used in the following experiments (0.05-20 μg/ml). […] (=“not done”)
All the preceding experiments were performed at 25° C., the standard temperature for Drosophila culture. However, the insects in the wild would clearly be exposed to varying temperatures, so we investigated the extent to which the efficiency of the system is affected by temperature. As with the recombinant chromosome experiments, 40-45 young virgin females and 20-25 young males raised at 25° C. upon food with the indicated tetracycline supplement were allowed to mate, then transferred to normal (tetracycline-free) food after 3-4 days. These flies were transferred to fresh vials of normal food every day. The numbers of male and female progeny emerging as adults in each vial were recorded. These experiments were performed at either 18° C. or 29° C.
We used a strain of Drosophila in which females, but not males, require Tc for viability.
A strain homozygous for second chromosome insertions of both Yp3-tTA and tRe-Ras64B^V12 was tested for the effect of parental dietary Tc. 40-45 young females and 20-25 young males raised at 25° C. upon food with the indicated tetracycline supplement were allowed to mate, then transferred to normal (tetracycline-free) food after 3-4 days. These flies were transferred to fresh vials of normal food every day for 12 days, and then removed on the 13th day. All the vials were incubated at 25° C. while the progeny developed. The total numbers of male and female progeny emerging as adults were recorded.

[1] = parents raised on Tc 20 μg/ml, Day 8 on normal food
[2] = parents raised on Tc 20 μg/ml, Day 9 on normal food
[3] = parents raised on Tc 20 μg/ml, Day 10 on normal food
[4] = parents raised on Tc 20 μg/ml, Day 11 on normal food
[5] = parents raised on Tc 20 μg/ml, Day 12 on normal food
[6] = parents raised on Tc 20 μg/ml, Total of Days 1-12 on normal food
[7] = parents raised on Tc 100 μg/ml, Day 8 on normal food
[8] = parents raised on Tc 100 μg/ml, Day 9 on normal food
[9] = parents raised on Tc 100 μg/ml, Day 10 on normal food
[10] = parents raised on Tc 100 μg/ml, Day 11 on normal food
[11] = parents raised on Tc 100 μg/ml, Day 12 on normal food
[12] = parents raised on Tc 100 μg/ml, Total of Days 1-12 on normal food
[13] = parents raised on Tc 500 μg/ml, Day 8 on normal food
[14] = parents raised on Tc 500 μg/ml, Day 9 on normal food
[15] = parents raised on Tc 500 μg/ml, Day 10 on normal food
[16] = parents raised on Tc 500 μg/ml, Day 11 on normal food
[17] = parents raised on Tc 500 μg/ml, Day 12 on normal food
[18] = parents raised on Tc 500 μg/ml, Total of Days 1-12 on normal food
[19] = parents raised on Tc 1000 μg/ml, Day 8 on normal food
[20] = parents raised on Tc 1000 μg/ml, Day 9 on normal food
[21] = parents raised on Tc 1000 μg/ml, Day 10 on normal food
[22] = parents raised on Tc 1000 μg/ml, Day 11 on normal food
[23] = parents raised on Tc 1000 μg/ml, Day 12 on normal food
[24] = parents raised on Tc 1000 μg/ml, Total of Days 1-12 on normal food
[25] = parents raised on Tc 2000 μg/ml, Day 8 on normal food
[26] = parents raised on Tc 2000 μg/ml, Day 9 on normal food
[27] = parents raised on Tc 2000 μg/ml, Day 10 on normal food
[28] = parents raised on Tc 2000 μg/ml, Day 11 on normal food
[29] = parents raised on Tc 2000 μg/ml, Day 12 on normal food
[30] = parents raised on Tc 2000 μg/ml, Total of Days 1-12 on normal food

SMILES: CN(C)[C@@H]1C(O)=C(C(N)=O)C(=O)[C@@]2(O)C(O)=C3C(=O)c4c(O)cccc4[C@@](C)(O)[C@H]3C[C@@H]12 [Tetracycline, tetracycline]
- ♂ progeny emerging as adults (parents raised on Tc 5 μg/ml, Day 11 on normal food): 144
- ♂ progeny emerging as adults (parents raised on Tc 5 μg/ml, Day 12 on normal food): 91
- ♀ progeny emerging as adults [1]: 0
- ♂ progeny emerging as adults [1]: 135
- ♀ progeny emerging as adults [2]: 0
- ♂ progeny emerging as adults [2]: 126
- ♀ progeny emerging as adults [3]: 0
- ♂ progeny emerging as adults [3]: 143
- ♀ progeny emerging as adults [4]: 0
- ♂ progeny emerging as adults [4]: 123
- ♀ progeny emerging as adults [5]: 0
- ♂ progeny emerging as adults [5]: 141
- ♀ progeny emerging as adults [6]: 0
- ♂ progeny emerging as adults [6]: 1366
- ♀ progeny emerging as adults [7]: 0
- ♂ progeny emerging as adults [7]: 96
- ♀ progeny emerging as adults [8]: 0
- ♂ progeny emerging as adults [8]: 92
- ♀ progeny emerging as adults [9]: 0
- ♂ progeny emerging as adults [9]: 104
- ♀ progeny emerging as adults [10]: 0
- ♂ progeny emerging as adults [10]: 94
- ♀ progeny emerging as adults [11]: 0
- ♂ progeny emerging as adults [11]: 115
- ♀ progeny emerging as adults [12]: 0
- ♂ progeny emerging as adults [12]: 1407
- ♀ progeny emerging as adults [13]: 0
- ♂ progeny emerging as adults [13]: 141
- ♀ progeny emerging as adults [14]: 0
- ♂ progeny emerging as adults [14]: 144
- ♀ progeny emerging as adults [15]: 0
- ♂ progeny emerging as adults [15]: 123
- ♀ progeny emerging as adults [16]: 0
- ♂ progeny emerging as adults [16]: 104
- ♀ progeny emerging as adults [17]: 0
- ♂ progeny emerging as adults [17]: 124
- ♀ progeny emerging as adults [18]: 2
- ♂ progeny emerging as adults [18]: 1376
- ♀ progeny emerging as adults [19]: 0
- ♂ progeny emerging as adults [19]: 138
- ♀ progeny emerging as adults [20]: 0
- ♂ progeny emerging as adults [20]: 105
- ♀ progeny emerging as adults [21]: 0
- ♂ progeny emerging as adults [21]: 124
- ♀ progeny emerging as adults [22]: 0
- ♂ progeny emerging as adults [22]: 115
- ♀ progeny emerging as adults [23]: 0
- ♂ progeny emerging as adults [23]: 114
- ♀ progeny emerging as adults [24]: 18
- ♂ progeny emerging as adults [24]: 1409
- ♀ progeny emerging as adults [25]: 0
- ♂ progeny emerging as adults [25]: 114
- ♀ progeny emerging as adults [26]: 0
- ♂ progeny emerging as adults [26]: 123
- ♀ progeny emerging as adults [27]: 0
- ♂ progeny emerging as adults [27]: 132
- ♀ progeny emerging as adults [28]: 0
- ♂ progeny emerging as adults [28]: 115
- ♀ progeny emerging as adults [29]: 0
- ♂ progeny emerging as adults [29]: 107
- ♀ progeny emerging as adults [30]: 78
- ♂ progeny emerging as adults [30]: 1404
